Laboratory results published in patent US20030175274A1.
Results are given in words; binding and its absence hold for the method and conditions named. Some results given as binding are weak or reduced against the parent protein; the word gives no strength.

Sequences of proteins named here, by UniProt entry; tags and fusion partners are left off. A change or cut given only in a name is not applied to a line headed by its entry.
UniProt P49767: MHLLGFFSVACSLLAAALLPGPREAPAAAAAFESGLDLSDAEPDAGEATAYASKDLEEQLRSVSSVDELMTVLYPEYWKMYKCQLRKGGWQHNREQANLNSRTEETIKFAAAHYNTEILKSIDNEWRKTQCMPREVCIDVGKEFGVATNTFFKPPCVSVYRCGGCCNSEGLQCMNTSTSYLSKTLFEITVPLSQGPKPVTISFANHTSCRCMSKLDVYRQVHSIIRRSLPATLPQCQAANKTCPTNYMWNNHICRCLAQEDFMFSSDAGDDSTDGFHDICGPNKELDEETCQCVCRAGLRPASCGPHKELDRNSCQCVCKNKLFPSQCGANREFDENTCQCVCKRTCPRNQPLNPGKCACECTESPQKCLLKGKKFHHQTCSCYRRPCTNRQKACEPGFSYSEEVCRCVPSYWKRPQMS

B1: 69D09 scFv (scFv)
scFv: EVRLLESGGGLVQPGGSLRLSCAASGFTFRPRAMAWVRQAPGKGLEWVSSISAQGASAYYADSVKGRFTISRDNSKNTLYLQMNSLRAEDTAVYYCARDLSVSGFGPWGRGTMVAVSSGGGGPGGGGSGGGRSALSYELTQPPSSSGTPGQRVTISCSGSSSNIGRHTVSWYQQVPGTAPKLLIYSDDHRPSGVPDRFSASKSGTSASLTITGLQSEDEADYYCAAWDDSLNGPWVFGGGTKLTVLG
B2: 20G02 scFv (scFv)
scFv: EVQLLESGGGLVQPGGSLRLSCAASGFTFSSYAMSWARQAPGKGLEWVSAISGSGGSTYYADSVKGRFTISRDNSKNTLYLQMNSLRAEDTAVYYCARFSRNSWENWGRGTLVTVSSGGGGSGGGGSGGGGSAQAVVIQEPSFSVSPGGTVTLTCGLSSGSVSTSNYPSWHRQTPGQAPRTLIYNTNTRSSGVPDRFSGSILGNKAALTITGAQADDESDYYCALHMRSGLSVFGGGTKVTVLG
B3: 20G11 scFv (scFv)
scFv: EVQLLESGGGLVQPGGSLRLSCAASGFTFSSYAMSWARQAPGKGLEWVSAISGSGGSTYYADSVKGRFTISRDNSKNTLYLQMNSLRAEDTAVYYCARWVGGNEGSWSDWGQGTLVTVSSGGGGSGGGGSGGGGSALNFMLTQPHSVSESPGKTVTISCTRSGGSIASNYVQWYQQRPGSVPTTLIYEDHKRPSGVPDRFSGSIDSSSNSASLTISGLKTEDEADYYCQSYDTSAWVFGGGTKLTVLG
B4: 72D09 scFv (scFv)
scFv: EVQLLKSGGGLVQPGGSLRLSCAASGFTFSSYAMSWVRQAPGKGLEWVSAISGSGGSTYYADSVKGRFTISRDNSKNTLYLQMNSLRAEDTAVYYCARDLSAGFFDPWGRGTMVTVSSGGGGSGGGGSGGGGSAQSVLTQPPSSSGTPGQRVTISCSGSSSNIGRHTVSWYQQVPGTAPKLLIYSDDHRPSGVPDRFSASKSGTSASLTITGLQSEDEADYYCAAWDDSLNGPWVFGGGTKLTVLG
B5: 25A07 scFv (scFv)
scFv: EVQLLESGGGLVQPEGSLRLSCAASGFTFSSYAMSWVRQAPGKGLEWVSAISGSGGSTYYADSVKGRFTISRDNSKNTLYLQMNSLRAEDTAVYYCARDLSDSKFDPWGRGSMVTVSSGGGGSGGGGSGGGGSALSYELTQPPSSSGTPGQRVTISCSGSSSNIGRHTVSWYQQVPGTAPKLLIYSDDHRPSGVPDRFSASKSGTSASLTITGLQSEDEADYYCAAWDDSLNGPWVFGGGTKLTVLG
B6: 32G10X scFv (scFv)
scFv: QMQLVQSGAEVKKPGSSVKVSCKASGGIFSSYAISWVRQAPGQGLEWMGGIIPRFGTANYAQKFEGRVTITADESTSTAYMELSSLRSEDTAVYYCARDTVKSSGSYPYYNYYYMDVWGQGTLVTVSSSYVLTQPPSVSVSPGQTASITCSGDKLGDKYASWYQQKPGQSPVLVIHQDNKRPSGIPERFSGSNSGNTATLTISGTQAMDEADYYCQAWDSSLGVFGTGTKVTVLG
B7: 16C10 scFv (scFv)
scFv: QMQLVQSGAEVKKPGSSVKVSCKASGGIFSSYAISWVRQAPGQGLEWMGGIIPRFGTANYAQKFEGRVTITADESTSTAYMELSSLRSEDTAVYYCARDQVRASGSYPYYYYYYMDVWGQGTLVTVSSGGGGSGGGGSGGGGSALSYVLTQPPSMSVSPGQTARITCSGDKLGDKYASWYQQKPGQSPVLVIYQDSERPSGIPERFSGSNSGNTATLTIRGTQPLDEADYYCQTWDTSTGVFGGGTQLTVLS
B8: 16B06 scFv (scFv)
scFv: EVQLVETGGGFVRPGGSLRLSCAASGFTFSNYAMTWFRQAPGKGLEWVSDISGDGIGTYNADSVKGRFTISRDNSNSILYLQMNSLRAEDTAVYYCAKDRWYTSGWIFDYWGKGTLVTVSSGGGGSGGGGSGGGGSAQAVLTQPSSMSGAPGQRVTISCTGSSSNIGAGYDVHWYQQLPGTAPKLLIYANNNRPSGVPARFSGSKSGTSAYLAIAGLQAADESDYYCQSYDSYLGDSVFGGGTKLTV
B9: 19B09 scFv (scFv)
scFv: QVQLQESGPGLVKPSQTLSLTCSVSGGSISSRGYYWSWIRQHPGKGLEWIGYIYHNGNTYYNPSLKSRITMSVDTSKNQFSLKLSSVTAADTAVYFCARDKVVTGISGGFDLWGRGTLVTVSSGGGGSGGGGSGGGGSAQAVLTQPSSLSGAPGQRVTISCTGSSSNIGAGYDVHWYQHLPGTAPKLLIYGNNNRPSGVPDRFSGSKSGTSASLTITGLQAEDEADYYCQSDDSLSDSVVFGGGTQLTVLS

Molecular target: human vascular endothelial growth factor 2 (VEGF-2) (human) (UniProt P49767)
Test: phage display selection; assay format not described

Binder | binding
B1 | binds
B2 | binds
B3 | binds
B4 | binds
B5 | binds
B6 | binds
B7 | binds
B8 | binds
B9 | binds
